# Laboratory results published in the supplement of paper PMC6411743.
# ± gives the standard deviation of the averaged measurements. The entries are a selection whose mix differs from that of the whole data set.
# Assays:
# Assay in all cases: NP40-soluble protein abundance relative to vehicle (solubility fold change) (ratio); higher = more soluble protein in presence of ATP
# [1] = molecular target: T1, B7WPL9 and related entries (UniProt Q6PFW1)
# T1 sequence (whole entry): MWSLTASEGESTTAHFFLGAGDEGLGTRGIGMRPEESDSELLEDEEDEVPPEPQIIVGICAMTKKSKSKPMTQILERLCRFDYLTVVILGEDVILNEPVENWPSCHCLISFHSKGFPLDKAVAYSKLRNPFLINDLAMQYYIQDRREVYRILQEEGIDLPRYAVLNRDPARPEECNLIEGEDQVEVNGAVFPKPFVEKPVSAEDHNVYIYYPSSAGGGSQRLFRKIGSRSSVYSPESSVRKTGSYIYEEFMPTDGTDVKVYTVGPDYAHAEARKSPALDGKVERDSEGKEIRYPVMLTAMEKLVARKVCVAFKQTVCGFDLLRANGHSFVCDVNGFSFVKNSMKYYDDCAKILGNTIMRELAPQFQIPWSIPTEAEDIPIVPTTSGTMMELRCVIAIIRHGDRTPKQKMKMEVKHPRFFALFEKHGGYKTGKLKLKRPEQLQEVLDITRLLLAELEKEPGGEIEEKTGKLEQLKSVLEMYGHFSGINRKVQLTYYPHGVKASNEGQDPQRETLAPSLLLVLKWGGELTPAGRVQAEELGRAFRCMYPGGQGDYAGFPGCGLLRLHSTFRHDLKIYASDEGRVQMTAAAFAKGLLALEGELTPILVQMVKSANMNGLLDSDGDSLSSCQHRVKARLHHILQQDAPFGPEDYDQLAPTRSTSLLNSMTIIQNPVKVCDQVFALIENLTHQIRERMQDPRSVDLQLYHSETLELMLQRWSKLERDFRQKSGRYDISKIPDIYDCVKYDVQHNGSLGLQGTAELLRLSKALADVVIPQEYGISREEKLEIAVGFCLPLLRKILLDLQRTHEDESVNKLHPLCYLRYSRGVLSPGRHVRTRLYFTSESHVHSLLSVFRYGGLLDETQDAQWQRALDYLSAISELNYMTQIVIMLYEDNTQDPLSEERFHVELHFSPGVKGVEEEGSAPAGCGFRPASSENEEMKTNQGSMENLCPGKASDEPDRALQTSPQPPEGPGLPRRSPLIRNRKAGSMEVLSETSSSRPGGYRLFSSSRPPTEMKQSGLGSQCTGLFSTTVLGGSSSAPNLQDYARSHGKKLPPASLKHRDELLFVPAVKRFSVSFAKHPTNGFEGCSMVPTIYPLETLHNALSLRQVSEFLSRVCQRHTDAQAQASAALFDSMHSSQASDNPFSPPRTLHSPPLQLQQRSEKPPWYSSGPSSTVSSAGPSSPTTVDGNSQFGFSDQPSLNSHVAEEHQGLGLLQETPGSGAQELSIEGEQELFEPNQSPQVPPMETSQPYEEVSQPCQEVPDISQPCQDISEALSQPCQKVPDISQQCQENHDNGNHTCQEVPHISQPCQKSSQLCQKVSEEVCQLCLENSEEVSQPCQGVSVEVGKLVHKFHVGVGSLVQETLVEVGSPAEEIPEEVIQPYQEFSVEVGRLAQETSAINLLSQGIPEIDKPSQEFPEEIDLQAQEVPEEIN
# Procedure, shortened: (§1)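 In three independent experiments, Jurkat crude lysate made by Dounce homogenisation was treated for 10 min at room temperature and then 3 min at 37 °C with eight concentrations ranging from 0.1 to 10 mM. It was then solubilised with 0.8% NP40 plus benzonase for 60 min at 4 °C and ultracentrifuged. The supernatant was TMT-labelled for LC-MS/MS, and each value is the fold change against the detergent-processed vehicle for the same replicate, using vsn-normalised intensities.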
# [2] = molecular target: T2, B7Z4W5 (UniProt Q16773)
# T2 sequence (whole entry): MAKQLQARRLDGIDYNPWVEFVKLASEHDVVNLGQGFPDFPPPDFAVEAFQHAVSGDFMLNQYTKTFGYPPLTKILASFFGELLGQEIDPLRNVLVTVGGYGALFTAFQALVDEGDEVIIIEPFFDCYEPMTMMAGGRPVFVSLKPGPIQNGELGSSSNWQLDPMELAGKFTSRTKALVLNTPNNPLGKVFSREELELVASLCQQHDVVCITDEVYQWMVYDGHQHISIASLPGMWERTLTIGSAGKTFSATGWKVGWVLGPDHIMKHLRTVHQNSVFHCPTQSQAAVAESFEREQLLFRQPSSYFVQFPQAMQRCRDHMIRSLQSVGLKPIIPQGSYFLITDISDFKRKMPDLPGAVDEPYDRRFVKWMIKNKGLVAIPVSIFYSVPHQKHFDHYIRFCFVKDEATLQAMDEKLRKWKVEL
# Procedure, shortened: as §1
# [3] = molecular target: T3, B7ZL14 and related entries (UniProt Q96RU3)
# T3 sequence (whole entry): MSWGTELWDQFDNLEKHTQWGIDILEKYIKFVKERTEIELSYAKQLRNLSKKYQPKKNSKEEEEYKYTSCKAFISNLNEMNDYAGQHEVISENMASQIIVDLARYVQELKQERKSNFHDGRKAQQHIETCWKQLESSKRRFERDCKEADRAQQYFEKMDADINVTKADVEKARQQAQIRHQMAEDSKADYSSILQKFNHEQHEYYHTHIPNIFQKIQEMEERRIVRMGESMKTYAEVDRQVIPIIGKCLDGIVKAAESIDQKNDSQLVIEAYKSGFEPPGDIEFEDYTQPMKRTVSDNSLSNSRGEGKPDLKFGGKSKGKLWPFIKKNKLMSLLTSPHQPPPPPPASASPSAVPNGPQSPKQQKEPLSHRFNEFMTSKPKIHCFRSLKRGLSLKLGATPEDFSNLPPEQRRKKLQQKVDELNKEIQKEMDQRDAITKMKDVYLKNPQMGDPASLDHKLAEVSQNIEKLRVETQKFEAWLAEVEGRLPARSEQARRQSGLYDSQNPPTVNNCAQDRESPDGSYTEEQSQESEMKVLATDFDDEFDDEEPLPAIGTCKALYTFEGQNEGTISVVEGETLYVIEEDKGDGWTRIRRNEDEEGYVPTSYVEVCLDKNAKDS
# Procedure, shortened: as §1
# [4] = molecular target: T4, C9J494 and related entries (UniProt Q9H000)
# T4 sequence (whole entry): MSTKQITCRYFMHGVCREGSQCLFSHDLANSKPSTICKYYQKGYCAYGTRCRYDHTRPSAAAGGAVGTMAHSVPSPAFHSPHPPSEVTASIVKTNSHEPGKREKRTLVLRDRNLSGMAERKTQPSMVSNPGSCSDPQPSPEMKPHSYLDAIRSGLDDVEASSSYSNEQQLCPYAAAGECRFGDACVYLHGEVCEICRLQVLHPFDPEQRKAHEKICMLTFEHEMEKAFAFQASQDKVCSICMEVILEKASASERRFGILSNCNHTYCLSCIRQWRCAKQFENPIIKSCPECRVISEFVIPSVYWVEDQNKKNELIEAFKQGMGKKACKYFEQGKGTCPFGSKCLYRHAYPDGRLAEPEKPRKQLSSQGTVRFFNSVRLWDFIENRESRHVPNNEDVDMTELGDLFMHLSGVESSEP
# Procedure, shortened: as §1
compound,measurement,setting,value
Nc1ncnc2c1ncn2[C@@H]1O[C@H](COP(=O)(O)OP(=O)(O)OP(=O)(O)O)[C@@H](O)[C@H]1O [adenosine triphosphate],NP40-soluble protein abundance,[1]; concentration: 1mM,0.952 ± 0.031
same,NP40-soluble protein abundance,[1]; concentration: 2mM,0.962 ± 0.054
same,NP40-soluble protein abundance,[1]; concentration: 4mM,0.986 ± 0.025
same,NP40-soluble protein abundance,[1]; concentration: 6mM,0.922 ± 0.025
same,NP40-soluble protein abundance,[1]; concentration: 8mM,0.939 ± 0.034
same,NP40-soluble protein abundance,[1]; concentration: 10mM,0.959 ± 0.075
same,NP40-soluble protein abundance,[2]; concentration: 1mM,1.05 ± 0.25
same,NP40-soluble protein abundance,[2]; concentration: 2mM,1.02 ± 0.2
same,NP40-soluble protein abundance,[2]; concentration: 4mM,0.967 ± 0.14
same,NP40-soluble protein abundance,[2]; concentration: 6mM,0.842 ± 0.25
same,NP40-soluble protein abundance,[2]; concentration: 8mM,0.982 ± 0.087
same,NP40-soluble protein abundance,[2]; concentration: 10mM,1.04 ± 0.1
same,NP40-soluble protein abundance,[3]; concentration: 1mM,0.93 ± 0.072
same,NP40-soluble protein abundance,[3]; concentration: 2mM,0.942 ± 0.037
same,NP40-soluble protein abundance,[3]; concentration: 4mM,0.918 ± 0.029
same,NP40-soluble protein abundance,[3]; concentration: 6mM,0.976 ± 0.036
same,NP40-soluble protein abundance,[3]; concentration: 8mM,0.915 ± 0.027
same,NP40-soluble protein abundance,[3]; concentration: 10mM,0.912 ± 0.019
same,NP40-soluble protein abundance,[4]; concentration: 1mM,1.05 ± 0.026
same,NP40-soluble protein abundance,[4]; concentration: 2mM,1.06 ± 0.026
same,NP40-soluble protein abundance,[4]; concentration: 4mM,1.07 ± 0.033
same,NP40-soluble protein abundance,[4]; concentration: 6mM,1.06 ± 0.049
same,NP40-soluble protein abundance,[4]; concentration: 8mM,1.08 ± 0.059
same,NP40-soluble protein abundance,[4]; concentration: 10mM,1.09 ± 0.053

# A section from the list above, for reference:
compound,measurement,setting,value
Nc1ncnc2c1ncn2[C@@H]1O[C@H](COP(=O)(O)OP(=O)(O)OP(=O)(O)O)[C@@H](O)[C@H]1O [adenosine triphosphate],NP40-soluble protein abundance,[2]; concentration: 4mM,0.967 ± 0.14
same,NP40-soluble protein abundance,[2]; concentration: 6mM,0.842 ± 0.25
